# Laboratory results reported in the supplement of paper PMC10338343.
# ± gives the standard deviation. Only a part is listed here, and it is no random draw. Many entries were measured with a wide error. This is one part of the list.
# Test system: MILI (PIWIL2) piRISC loaded with L1MC piRNA (26 nt)
# Assay: pre-steady-state target cleavage rate (min^-1); higher = faster piRNA-guided slicing of the target
# Conditions: guide: L1MC piRNA 5'p-UAACUAAAUACUAUGCAAGCUGUAGG; auxiliary factor: 500 nM mouse GTSF1
# Outline: (§1)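 A transcribed, DNA-blocked target RNA library (0.1 nM) and 1 nM active affinity-purified piRISC bearing one synthetic guide were incubated in HEPES–potassium acetate buffer at 33 °C for 0–8 or 0–960 min, either with or without 500 nM GTSF1 partner protein. Uncleaved targets were sequenced, normalised to depth and to weakly complementary targets, and pooled over three trials, with k3 capped at 0.0001 min^-1. The pre-steady-state cleavage rate was derived with a burst-and-steady-state fit.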
row,Sequence,pre-steady-state target cleavage rate
1,UCCUGCUACAGCAUGCAUAGUAUUUAGAUA,0.179 ± 0.033
2,UCCUGGUACAGGUUGCAUACUAUUUAGUUA,0.111 ± 0.033
3,UCCUGGAUGUGCUUGCAUAGUAAUUACUUA,0.00537 ± 0.0033
4,UCCUGGAACAGCUUGCAUAGUAUUAACUUA,0.0356 ± 0.0096
5,UCCUGGAACAGCUAGCAAAGUAUUUAGUUA,0.11 ± 0.013
6,UCCUGGAACAGCUAGCUUAGUAUUUAGUUA,0.186 ± 0.015
7,UCCUGGAACAGCUUGCAUAGUUUUUAGUUA,0.0586 ± 0.01
8,UCCUGGAACAGCUUGCAAAGAAUUUAGUUA,0.102 ± 0.037
9,UCCUGCUAGAGCAUGCAUAGUAUUUAGUUA,0.226 ± 0.018
10,UCCUGGAUGUCGAACGUAUGGUAUUUAGUUA,0.00101 ± 0.0084
11,UCCUGGAACAGCUUGCAUAGAAUUUAGUUA,0.0554 ± 0.01
12,UCCUGGAUGUGCUGUGCAUAGUAUUUAGUUA,0.131 ± 0.015
13,UCCUGGAACAGCUUGGAUAGUAUUUACUUA,0.0413 ± 0.012
14,UCCUGCUACAGCUUGCAAAGUAUUUACUUA,0.0653 ± 0.0078
15,UCCUGCUACAGCAUGCAUAGUAUUAAGUUA,0.331 ± 0.043
16,UCCUGCUACAGCAUGCAUAGUAUUUAGUUA,0.353 ± 0.022
17,UCCUGGAUGUCGUAGCAUUGUAUUUAGUUA,0.00325 ± 0.0044
18,UCCUGGUACAGCUUGGUUAGUAUUUAGUAA,0.159 ± 0.038
19,UCCUGGAUGAGCUUGCAUAGUAAUUACUUA,0.00616 ± 0.004
20,UCCUCCUACAGCUUGCAAUCUAUUUAGUUA,0.0266 ± 0.0058
21,UCCUGCUAGAGCUUGCAAAGUAUUUAGUUA,0.112 ± 0.012
22,UCCUGGAUCAGCUUACAUAGUAUUUAGUUA,0.249 ± 0.014
23,UCCUGGAAGUGCUUGCAUAGUAUUUAGUAA,0.136 ± 0.022

# Same assay, conditions: guide: L1MC piRNA 5'p-UAACUAAAUACUAUGCAAGCUGUAGG; auxiliary factor: none (no GTSF1)
row,Sequence,pre-steady-state target cleavage rate
1,UCCUGCUACAGCAUGCAUAGUAUUUAGAUA,0.0018 ± 0.0046
2,UCCUGGUACAGGUUGCAUACUAUUUAGUUA,0.00543 ± 0.0028
3,UCCUGGAUGUGCUUGCAUAGUAAUUACUUA,0.000738 ± 0.0095
4,UCCUGCUACAUGCUUGCAUAGUAUUUAGUUA,0.00259 ± 0.0036
5,UCCUGGAACAGCUUGCAUAGUAUUAACUUA,0.00123 ± 0.0043
6,UCCUGGAACAGCUAGCAAAGUAUUUAGUUA,0.00729 ± 0.002
7,UCCUGGAACAGCUAGCUUAGUAUUUAGUUA,0.0065 ± 0.0023
8,UCCUGGAACAGCUUGCAUAGUUUUUAGUUA,0.00493 ± 0.0022
9,UCCUGGAACACCUUGCAUAGUAUUUAGAAA,0.00131 ± 0.005
10,UCCUGGAACAGCAUGCAUAGUAUUUAGAUA,0.00207 ± 0.0035
11,UCCUGGAACAGCUUGCAAAGAAUUUAGUUA,0.00235 ± 0.0032
12,UCCUGCUAGAGCAUGCAUAGUAUUUAGUUA,0.00708 ± 0.0024
13,UCCUGGAUGUCGAACGUAUGGUAUUUAGUUA,0.000831 ± 0.0077
14,UCCUCCUACAGCUUCCAUAGUAUUUAGUUA,0.00122 ± 0.0049
15,UCCUCCUACAGCUUGCAUACUAUUUAGAAA,0.0012 ± 0.0043
16,UCCUGGAUGAGCUUGGCAUAGUAUUUAGUUA,0.00219 ± 0.0032
17,UCCUGCUACUGCUUCCAUAGUAUUUAGUUA,0.00141 ± 0.0047
18,UCCUGCUACAGCUUGCAUAGUAUAAUGUUA,0.00224 ± 0.0033
19,UCCUGGAACAGCUUGCAUAGAAUUUAGUUA,0.00299 ± 0.0027
20,UCCUGGAUGUGCUGUGCAUAGUAUUUAGUUA,0.00886 ± 0.004

row,Sequence,pre-steady-state target cleavage rate
1,UCCUGCUUGAGCUUGCAUAGUAUUUUCAAA,0.000819 ± 0.007
2,UCCUGGAACAGCUUGGAUAGUAUUUACUUA,0.00198 ± 0.0036
3,UCCUGCUAAAGCUUGCAUAGUAUUUAGUUA,0.00156 ± 0.005
4,UCCUGGAUGAGCUUGCAUUCUAUUUAGUUA,0.00121 ± 0.0046
5,UCCUGGAUGAGCUUGCAUUGUAUUUACUUA,0.0012 ± 0.0059
6,UCCUGCUACAGCUUGCAAAGUAUUUACUUA,0.00269 ± 0.0028
7,UCCUGCUACAGCUUGCAUACAUUUUACAAA,0.000579 ± 0.008
8,UCCUGCUACAGCAUGCAUAGUAUUAAGUUA,0.00346 ± 0.0032
9,UCCUGCUACAGCAUGCAUAGUAUUUAGUUA,0.00853 ± 0.003
10,UCCUGGAUGUCGUAGCAUUGUAUUUAGUUA,0.000524 ± 0.009
11,UCCUGGUACAGCUUGGUUAGUAUUUAGUAA,0.01 ± 0.0031
12,UCCUGGAUGAGCUUGCAUAGUAUAUAGUAA,0.00245 ± 0.0038
13,UCCUGGAUGUGCUUGCAUAGCAUUUAGUUA,0.00152 ± 0.0044
14,UCCUGGAUGAGCUUGCAUAGUAAUUACUUA,0.00126 ± 0.005
15,UCCUCCUACAGCUUGCAAUCUAUUUAGUUA,0.00183 ± 0.0026
16,UCCUGCUAGAGCUUGCAAAGUAUUUAGUUA,0.00382 ± 0.0021
17,UCCUGGAUCAGCUUACAUAGUAUUUAGUUA,0.00805 ± 0.0023
18,UCCUGGAACAGCUUGCAAUAGUAUUUAGUUA,0.00204 ± 0.0032
19,UCCUGGAAGUGCUUGCAUAGUAUUUAGUAA,0.00252 ± 0.0026
20,UCCUGGAUGUGCUUGCAUAGAAUUUAGAUA,0.00117 ± 0.0055

# Test system: EfPiwi piRISC loaded with L1MC piRNA (26 nt)
# Assay: pre-steady-state target cleavage rate (min^-1); guide: L1MC piRNA 5'p-UAACUAAAUACUAUGCAAGCUGUAGG; MIWI and MILI are mouse PIWI proteins and EfPiwi is from a freshwater sponge; tags in brackets are library labels; higher = faster piRNA-guided slicing of the target
# Conditions: auxiliary factor: 500 nM Ephydatia muelleri Gtsf1
# Outline: as §1
row,Sequence,pre-steady-state target cleavage rate
1,UCCUGCUACAGCAUGCAUAGUAUUUAGAUA,0.00378 ± 0.0015
2,UCCUGGUACAGGUUGCAUACUAUUUAGUUA,0.00258 ± 0.002
3,UCCUGGAUGUGCUUGCAUAGUAAUUACUUA,0.00173 ± 0.0042
4,UCCUGCUACAUGCUUGCAUAGUAUUUAGUUA,0.00438 ± 0.002
5,UCCUGGAACAGCUUGCAUAGUAUUAACUUA,0.000962 ± 0.0047
6,UCCUGGAACAGCUAGCAAAGUAUUUAGUUA,0.00366 ± 0.0025
7,UCCUGGAACAGCUAGCUUAGUAUUUAGUUA,0.00846 ± 0.0037
8,UCCUGGAACAGCUUGCAUAGUUUUUAGUUA,0.00683 ± 0.0019
9,UCCUGGAACACCUUGCAUAGUAUUUAGAAA,0.00182 ± 0.0029
10,UCCUGGAACAGCAUGCAUAGUAUUUAGAUA,0.00441 ± 0.0022
11,UCCUGGAACAGCUUGCAAAGAAUUUAGUUA,0.000753 ± 0.0045
12,UCCUGCUAGAGCAUGCAUAGUAUUUAGUUA,0.00618 ± 0.0015
13,UCCUGGAUGUCGAACGUAUGGUAUUUAGUUA,0.000667 ± 0.012
14,UCCUCCUACAGCUUCCAUAGUAUUUAGUUA,0.0042 ± 0.0019
15,UCCUCCUACAGCUUGCAUACUAUUUAGAAA,0.00366 ± 0.0019
16,UCCUGGAUGAGCUUGGCAUAGUAUUUAGUUA,0.0123 ± 0.0039
17,UCCUGCUACUGCUUCCAUAGUAUUUAGUUA,0.00205 ± 0.0016
18,UCCUGCUACAGCUUGCAUAGUAUAAUGUUA,0.00304 ± 0.002
19,UCCUGGAACAGCUUGCAUAGAAUUUAGUUA,0.0051 ± 0.0017
20,UCCUGGAUGUGCUGUGCAUAGUAUUUAGUUA,0.00568 ± 0.0024

row,Sequence,pre-steady-state target cleavage rate
1,UCCUGCUUGAGCUUGCAUAGUAUUUUCAAA,0.00207 ± 0.0018
2,UCCUGGAACAGCUUGGAUAGUAUUUACUUA,0.000665 ± 0.0039
3,UCCUGCUAAAGCUUGCAUAGUAUUUAGUUA,0.00411 ± 0.0014
4,UCCUGGAUGAGCUUGCAUUCUAUUUAGUUA,0.00167 ± 0.0028
5,UCCUGGAUGAGCUUGCAUUGUAUUUACUUA,0.000743 ± 0.0058
6,UCCUGCUACAGCUUGCAAAGUAUUUACUUA,0.00241 ± 0.0031
7,UCCUGCUACAGCUUGCAUACAUUUUACAAA,0.00124 ± 0.0063
8,UCCUGCUACAGCAUGCAUAGUAUUAAGUUA,0.00828 ± 0.0024
9,UCCUGCUACAGCAUGCAUAGUAUUUAGUUA,0.0124 ± 0.0037
10,UCCUGGAUGUCGUAGCAUUGUAUUUAGUUA,0.000173 ± 0.033
11,UCCUGGUACAGCUUGGUUAGUAUUUAGUAA,0.00341 ± 0.004
12,UCCUGGAUGAGCUUGCAUAGUAUAUAGUAA,0.00247 ± 0.0032
13,UCCUGGAUGUGCUUGCAUAGCAUUUAGUUA,0.00505 ± 0.0018
14,UCCUGGAUGAGCUUGCAUAGUAAUUACUUA,0.000892 ± 0.0047
15,UCCUCCUACAGCUUGCAAUCUAUUUAGUUA,0.00376 ± 0.0036
16,UCCUGCUAGAGCUUGCAAAGUAUUUAGUUA,0.00607 ± 0.0018
17,UCCUGGAUCAGCUUACAUAGUAUUUAGUUA,0.175 ± 0.039
18,UCCUGGAACAGCUUGCAAUAGUAUUUAGUUA,0.0183 ± 0.0054
19,UCCUGGAAGUGCUUGCAUAGUAUUUAGUAA,0.00343 ± 0.0027
20,UCCUGGAUGUGCUUGCAUAGAAUUUAGAUA,0.00136 ± 0.0039
